# Measured values reported in the supplement of paper PMC8728848.
# This is one part of the list.
# B1: SUN4 (Saccharomyces cerevisiae), P53616 (protein)
# chain: MGSSHHHHHHSSGLVPRGSHNGSIYGDLADFSGPYEKFEDGTIPCGQFPSGQGVIPISWLDEGGWSGVENTDTSTGGSCKEGSYCSYACQPGMSKTQWPSDQPSDGRSIGGLLCKDGYLYRSNTDTDYLCEWGVDAAYVVSELSNDVAICRTDYPGTENMVIPTYVQAGDSLPLTVVDQDTYYTWQGLKTSAQYYVNNAGISVEDACVWGSSSSGVGNWAPLNFGAGSSDGVAYLSLIPNPNNGNALNFNVKIVAADDSSTVNGECIYENGSFSGGSDGCTVSVTAGKAKFVLYN
# Assays:
# Test in all cases: glycan array binding signal (z-score within array); higher = stronger binding
# Details in all cases: glycan notation: IUPAC condensed, linker removed
# [1] = molecular target: Fuc(a1-2)Gal6S(b1-3)GlcNAc
# Procedure, shortened: (§1)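 Glycan array binding is given as a within-array Z-score, which can be read as non-binding when negative. The arrays, 3228 of them, came from the Consortium for Functional Glycomics database and were retained only where the protein sequence was available. Z-scores were averaged across arrays of the same protein sequence at different concentrations or buffers and across linkers.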
# [2] = molecular target: Fuc(a1-2)Gal6S(b1-3)GlcNAc6S
# Procedure, shortened: as §1
# Fuc(a1-2)Gal6S(b1-4)Glc = molecular target: Fuc(a1-2)Gal6S(b1-4)Glc
# Procedure, shortened: as §1
# [3] = molecular target: Fuc(a1-2)Gal6S(b1-4)Glc6S
# Procedure, shortened: as §1
# Fuc(a1-2)[Gal(a1-3)]Gal = molecular target: Fuc(a1-2)[Gal(a1-3)]Gal
# Procedure, shortened: as §1
# [4] = molecular target: Fuc(a1-2)[Gal(a1-3)]Gal(b1-3)GalNAc
# Procedure, shortened: as §1
# [5] = molecular target: Fuc(a1-2)[Gal(a1-3)]Gal(b1-3)GalNAc(b1-3)Gal(a1-4)Gal(b1-4)Glc
# Procedure, shortened: as §1
# [6] = molecular target: Fuc(a1-2)[Gal(a1-3)]Gal(b1-3)GlcNAc
# Procedure, shortened: as §1
# [7] = molecular target: Fuc(a1-2)[Gal(a1-3)]Gal(b1-3)GlcNAc(b1-2)Man(a1-3)[Fuc(a1-2)[Gal(a1-3)]Gal(b1-3)GlcNAc(b1-2)Man(a1-6)]Man(b1-4)GlcNAc(b1-4)GlcNAc
# Procedure, shortened: as §1
# [8] = molecular target: Fuc(a1-2)[Gal(a1-3)]Gal(b1-3)GlcNAc(b1-2)Man(a1-3)[Fuc(a1-2)[Gal(a1-3)]Gal(b1-3)GlcNAc(b1-2)Man(a1-6)]Man(b1-4)GlcNAc(b1-4)[Fuc(a1-6)]GlcNAc
# Procedure, shortened: as §1
# [9] = molecular target: Fuc(a1-2)[Gal(a1-3)]Gal(b1-3)GlcNAc(b1-3)GalNAc
# Procedure, shortened: as §1
# [10] = molecular target: Fuc(a1-2)[Gal(a1-3)]Gal(b1-3)GlcNAc(b1-6)GalNAc
# Procedure, shortened: as §1
# [11] = molecular target: Fuc(a1-2)[Gal(a1-3)]Gal(b1-4)Glc
# Procedure, shortened: as §1
# [12] = molecular target: Fuc(a1-2)[Gal(a1-3)]Gal(b1-4)GlcNAc
# Procedure, shortened: as §1
# [13] = molecular target: Fuc(a1-2)[Gal(a1-3)]Gal(b1-4)GlcNAc(b1-2)Man
# Procedure, shortened: as §1
# [14] = molecular target: Fuc(a1-2)[Gal(a1-3)]Gal(b1-4)GlcNAc(b1-2)Man(a1-3)[Fuc(a1-2)[Gal(a1-3)]Gal(b1-4)GlcNAc(b1-2)Man(a1-6)]Man(b1-4)GlcNAc(b1-4)GlcNAc
# Procedure, shortened: as §1
# [15] = molecular target: Fuc(a1-2)[Gal(a1-3)]Gal(b1-4)GlcNAc(b1-2)Man(a1-3)[Fuc(a1-2)[Gal(a1-3)]Gal(b1-4)GlcNAc(b1-2)Man(a1-6)]Man(b1-4)GlcNAc(b1-4)[Fuc(a1-6)]GlcNAc
# Procedure, shortened: as §1
# [16] = molecular target: Fuc(a1-2)[Gal(a1-3)]Gal(b1-4)GlcNAc(b1-3)GalNAc
# Procedure, shortened: as §1
# [17] = molecular target: Fuc(a1-2)[Gal(a1-3)]Gal(b1-4)GlcNAc(b1-3)[Fuc(a1-2)[Gal(a1-3)]Gal(b1-4)GlcNAc(b1-6)]GalNAc
# Procedure, shortened: as §1
# [18] = molecular target: Fuc(a1-2)[Gal(a1-3)]Gal(b1-4)GlcNAc(b1-6)GalNAc
# Procedure, shortened: as §1
# [19] = molecular target: Fuc(a1-2)[Gal(a1-3)]Gal(b1-4)[Fuc(a1-3)]Glc
# Procedure, shortened: as §1
# [20] = molecular target: Fuc(a1-2)[Gal(a1-3)]Gal(b1-4)[Fuc(a1-3)]GlcNAc
# Procedure, shortened: as §1
binder,measurement,setting,value
B1,glycan array binding signal (z-score),[1],-0.969
same,glycan array binding signal (z-score),[2],1.81
same,glycan array binding signal (z-score),Fuc(a1-2)Gal6S(b1-4)Glc,0.484
same,glycan array binding signal (z-score),[3],-0.372
same,glycan array binding signal (z-score),Fuc(a1-2)[Gal(a1-3)]Gal,0.062
same,glycan array binding signal (z-score),[4],-0.657
same,glycan array binding signal (z-score),[5],-0.573
same,glycan array binding signal (z-score),[6],-0.144
same,glycan array binding signal (z-score),[7],-0.246
same,glycan array binding signal (z-score),[8],-1.52
same,glycan array binding signal (z-score),[9],-0.997
same,glycan array binding signal (z-score),[10],-0.368
same,glycan array binding signal (z-score),[11],1.01
same,glycan array binding signal (z-score),[12],0.076
same,glycan array binding signal (z-score),[13],-0.567
same,glycan array binding signal (z-score),[14],0.938
same,glycan array binding signal (z-score),[15],-0.89
same,glycan array binding signal (z-score),[16],-0.769
same,glycan array binding signal (z-score),[17],-0.113
same,glycan array binding signal (z-score),[18],-0.415
same,glycan array binding signal (z-score),[19],-0.243
same,glycan array binding signal (z-score),[20],0.64

# Reprinted from the entries so far (2 entries):
binder,measurement,setting,value
B1,glycan array binding signal (z-score),Fuc(a1-2)[Gal(a1-3)]Gal,0.062
same,glycan array binding signal (z-score),[4],-0.657
